In patent publication US6723699B1 (Cephalon, Inc., priority 1989, dated 2004):
Where a sequence shows no end group, the ends are not given.

Experiment: general procedure: Fmoc solid-phase peptide synthesis; p-alkoxybenzylalcohol resin / preloaded Fmoc-amino acid resins (Biosearch, Bachem); BOP/HOBT (TBTU/HOBT for cyclic TYCAPAKSE)
Settings: whole synthesis

EPYCAPPAKSE
crude mass (scale 1.0 gram of resin): 110 mg

TYCAPAKSE
crude mass (scale 0.5 g of resin): 125 mg
